This passage reports IC50 and CC50 results from PubChem BioAssay AID1332 (Southern Research Institute, 2008).

Converted amounts (≈) assume the structure as drawn. The list shows a part of the results. These are further read-outs of the screen, such as a control signal, another cell line or another target. No call is given for them.

A short description of this assay: Mycobacterium tuberculosis H37Rv growth inhibition, confirmatory dose response, cytotoxicity (AID 1332).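 On CC50: Vero cells exposed to compounds for 72 hours.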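 On IC50: bacteria incubated 7 days before adding Alamar blue readout reagent.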 To be noted: M. tuberculosis H37Rv growth inhibition; CC50: measured here: Vero cell cytotoxicity; IC50: measured here: IC50 H37Rv replicates.
What is called IC50 is the concentration that inhibits the measured activity by half. A low value points to greater potency. On to `COc1ccc([C@@H]2Sc3ccccc3N(CCN(C)C)C(=O)[C@@H]2OC(C)=O)cc1`, for which the IC50 was > 20 mg/L.

A word on the CC50: it is the concentration that lowers cell viability or growth by half. A higher CC50 goes with better tolerance by the cells. On to `C[C@@H]1C[C@@H]([C@H](O)CC2CC(=O)NC(=O)C2)C(=O)[C@@H](C)C1`, for which the CC50 stood at 0.108 mg/L (≈ 0.384 µM) and the IC50 was > 20 mg/L.

Regarding `Cc1c(NC(C)C)c(=O)n(-c2ccccc2)n1C`, the IC50 is > 20 mg/L.

In the case of `C=CC[N@@+]12CC[C@]34c5ccccc5N5/C=C6\C7N(/C=C(\C53)[C@@H](C[C@@H]41)/C(=C/CO)C2)c1ccccc1[C@@]71CC[N@@+]2(CC=C)C/C(=C\CO)[C@@H]6C[C@@H]12` (some centres undefined), the IC50 is > 20 mg/L.

Regarding `Nc1nc2c(ncn2COC(CO)CO)c(=O)[nH]1`, the IC50 was > 20 mg/L.

Turning to `CC(NC(C)(C)C)C(=O)c1cccc(Cl)c1` (centres undefined), the IC50 was > 20 mg/L.

As for `NCCCCCC(=O)O`, the IC50 was > 20 mg/L.

As to `CCCNC(=O)NS(=O)(=O)c1ccc(Cl)cc1`, the IC50 was > 20 mg/L.

Take `CCN(CC)C(C)CN1c2ccccc2Sc2ccccc21` (centres undefined): the half-inhibitory concentration (IC50) was > 20 mg/L.

In the case of `CN(C)[C@@H]1C(=O)C(C(N)=O)=C(O)[C@@]2(O)C(=O)C3=C(O)c4c(O)cccc4[C@@](C)(O)[C@H]3C[C@@H]12`, the IC50 was 2.71 mg/L (≈ 6.09 µM).

In the case of `Clc1cccc(Cl)c1NC1=NCCN1`, the half-maximal inhibitory concentration (IC50) was > 20 mg/L.

With `Cc1cc2nc3c(=O)[nH]c(=O)nc-3n(C[C@H](O)[C@H](O)[C@H](O)CO)c2cc1C`, the IC50 was > 20 mg/L.

Take `NCC(CC(=O)O)c1ccc(Cl)cc1` (centres undefined): the half-inhibitory concentration (IC50) is > 20 mg/L.

Take `O=C1NCC2(CCN(CCc3ccccc3)CC2)O1`: the IC50 is > 20 mg/L.

As for `O=c1cccc2n1CC1CNC[C@H]2C1`, the IC50 is > 20 mg/L.

As for `O=C(c1ccc(F)cc1)C1CCN(CCn2c(=O)[nH]c3ccccc3c2=O)CC1`, the IC50 was > 20 mg/L.

For the molecule `CCN(CC)C(=O)c1ccc(O)c(OC)c1`, the IC50 is > 20 mg/L.

Regarding `CCC1(c2ccccc2)C(=O)NCNC1=O`, the 50% inhibitory concentration (IC50) is > 20 mg/L.

On to `CC(C)[N+]1(C)[C@@H]2CC[C@@H]1CC(OC(=O)C(CO)c1ccccc1)C2` (some centres undefined), for which the IC50 is > 20 mg/L.

For `CN(C)CCC(c1ccc(Br)cc1)c1ccccn1` (centres undefined), the IC50 was > 20 mg/L.

`COc1ccc2c(c1O)-c1c(OC)c(OC)cc3c1[C@H](C2)N(C)CC3`: the IC50 was > 20 mg/L.

As to `O=C1CC[C@@]2(O)[C@H]3Cc4ccc(O)c5c4[C@@]2(CCN3CC2CC2)[C@H]1O5`, the IC50 is > 20 mg/L.

Turning to `CN1CCN(CC(=O)N2c3ccccc3C(=O)Nc3cccnc32)CC1`, the IC50 was > 20 mg/L.

For the molecule `CN(CCCCCCCCCCN(C)C(=O)Oc1cccc([N+](C)(C)C)c1)C(=O)Oc1cccc([N+](C)(C)C)c1`, the IC50 amounted to 0.33 mg/L.

For the molecule `CC(=O)N(CC(O)CO)c1c(I)c(C(=O)NCC(O)CO)c(I)c(C(=O)NCC(O)CO)c1I` (centres undefined), the IC50 was > 20 mg/L.

Regarding `CC1=NS(=O)(=O)c2cc(Cl)ccc2N1`, the 50% inhibitory concentration (IC50) was > 20 mg/L.

For `CC[C@H](CO)NCCN[C@H](CC)CO`, the IC50 worked out at 0.131 mg/L (≈ 0.639 µM).

As to `C[C@@H]1CCC[C@H](C)N1NC(=O)c1ccc(Cl)c(S(N)(=O)=O)c1`, the IC50 was > 20 mg/L.

In turn, `Nc1ccc(S(=O)(=O)Nc2nccs2)cc1` registered an IC50 of 0.653 mg/L (≈ 2.56 µM).

For `CC(CNC1CCCCC1)OC(=O)c1ccccc1` (centres undefined), the IC50 is > 20 mg/L.

In the case of `CCOC1O[C@H]([C@@H](COCc2ccccc2)OCc2ccccc2)[C@H](OCc2ccccc2)[C@H]1O` (some centres undefined), the IC50 is > 20 mg/L.

As to `CC(=O)Nc1c(I)c(C(=O)N[C@H]2C(O)O[C@H](CO)[C@@H](O)[C@@H]2O)c(I)c(N(C)C(C)=O)c1I` (some centres undefined), the 50% inhibitory concentration (IC50) was > 20 mg/L.

As to `CCN(CC)CCNC(=O)c1ccc(N)cc1`, the IC50 was > 20 mg/L.

On to `CC(=O)c1cc2ccccc2oc1=O`, for which the IC50 is > 20 mg/L.

For `CN1[C@@H]2CC(=O)C[C@H]1[C@H](O)C2`, the IC50 is > 20 mg/L.

Regarding `CCCCOc1cc(C(=O)OCCN(CC)CC)ccc1N`, the IC50 was > 20 mg/L.

With `CC(=O)Nc1nnc(S(N)(=O)=O)s1`, the IC50 is > 20 mg/L.

Consider `COc1cc(CNC(=O)CCCC/C=C/C(C)C)ccc1O`, for which the IC50 was > 20 mg/L.

Consider `CO/N=C(\C(=O)N[C@@H]1C(=O)N2C(C(=O)O)=C(COC(C)=O)CS[C@H]12)c1csc(N)n1`, for which the IC50 is > 20 mg/L.

With `CC(C(O)c1ccc(O)cc1)N1CCC(Cc2ccccc2)CC1` (centres undefined), the IC50 was > 20 mg/L.

In turn, `CN(C(=O)CN(CCO)CC(=O)N(C)C(C)(C)Cc1ccccc1)C(C)(C)Cc1ccccc1` came in with an IC50 of 7.88 mg/L (≈ 16.9 µM).

As to `COc1cc(NS(=O)(=O)c2ccc(N)cc2)ncn1`, the IC50 is 2.42 mg/L (≈ 8.63 µM).

For the molecule `CCCCC(CC)CN=C(N)NC(N)=NCCCCCCN=C(N)NC(N)=NCC(CC)CCCC` (centres undefined), the CC50 was determined as 3.88 mg/L (≈ 7.63 µM) and the IC50 was found to be 0.563 mg/L (≈ 1.11 µM).

Take `COc1ccc(Cl)cc1C(=O)NCCc1ccc(S(=O)(=O)NC(=O)NC2CCCCC2)cc1`: the concentration for half-maximal inhibition (IC50) is > 20 mg/L.

In the case of `CC#C[C@]1(O)CC[C@H]2[C@@H]3CCC4=CC(=O)CCC4=C3[C@@H](c3ccc(N(C)C)cc3)C[C@@]21C`, the IC50 is > 20 mg/L.

As for `CCN(CCCCOC(=O)c1ccc(OC)c(OC)c1)C(C)Cc1ccc(OC)cc1` (centres undefined), the 50% inhibitory concentration (IC50) is > 20 mg/L.

Turning to `Cc1cc(C(C)(C)C)cc(C)c1CC1=NCCN1`, the IC50 is > 20 mg/L.

Consider `CCN(CC)CCOCCOC(=O)C1(c2ccccc2)CCCC1`, for which the IC50 was > 20 mg/L.

Turning to `N[C@H]1CONC1=O`, the IC50 turned out to be 0.855 mg/L (≈ 8.38 µM).

Consider `CCCCC1C(=O)N(c2ccccc2)N(c2ccc(O)cc2)C1=O` (centres undefined), for which the IC50 was > 20 mg/L.

Consider `CO[C@H](C)C(O)(C(=O)OCC1=CCN2CC[C@H](O)[C@@H]12)C(C)C` (some centres undefined), for which the IC50 is > 20 mg/L.

As for `COc1cc2nc(N3CCN(C(=O)C4COc5ccccc5O4)CC3)nc(N)c2cc1OC` (centres undefined), the IC50 was > 20 mg/L.
